Experimental data: PMC6456213, “LurR is a regulator of the central lactate oxidation pathway in sulfate-reducing Desulfovibrio species”
The exact form of at least one protein or probe is not confirmed. Protein sequences can lack the tags named with them.

Key:
[1] = biological target: T1, LurR (Desulfovibrio vulgaris Hildenborough) (UniProt Q726T3); assay: EMSA; conditions: 0.5-2.5 pmol LurR; 10 mM Tris-HCl pH 7.5, 50 mM KCl, 5 mM MgCl2, 1 ug/ml poly dI.dC, 100 fmol biotinylated DNA in 20 ul, room temperature, 20 min; recombinant protein; protein details: C-terminal V5 epitope and 6xHis; label: biotin on reverse primer; probe letters rebuilt from the primers and the genome
T1 sequence (looked up, limits assumed): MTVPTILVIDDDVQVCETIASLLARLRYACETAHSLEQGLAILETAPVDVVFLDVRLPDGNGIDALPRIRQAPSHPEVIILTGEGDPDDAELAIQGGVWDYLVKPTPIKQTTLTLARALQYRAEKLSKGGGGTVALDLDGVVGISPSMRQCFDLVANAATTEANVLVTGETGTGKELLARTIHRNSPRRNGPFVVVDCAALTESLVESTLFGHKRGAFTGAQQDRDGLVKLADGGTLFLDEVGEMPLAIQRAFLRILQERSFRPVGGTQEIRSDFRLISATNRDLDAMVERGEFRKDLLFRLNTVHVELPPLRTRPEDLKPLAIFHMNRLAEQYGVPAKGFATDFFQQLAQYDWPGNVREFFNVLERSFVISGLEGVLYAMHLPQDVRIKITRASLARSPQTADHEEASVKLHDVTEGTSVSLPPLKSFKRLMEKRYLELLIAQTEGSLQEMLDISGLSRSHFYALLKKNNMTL

[2] = biological target: T2, PhoB (Desulfovibrio vulgaris Hildenborough) (UniProt Q72D47); assay: EMSA; conditions: 125-250 pmol PhoB; 10 mM Tris-HCl pH 7.5, 50 mM KCl, 5 mM MgCl2, 1 ug/ml poly dI.dC, 100 fmol biotinylated DNA in 20 ul, room temperature, 20 min; recombinant protein; protein details: C-terminal V5 epitope and 6xHis; label: biotin on reverse primer; probe letters rebuilt from the primers and the genome
T2 sequence (looked up, limits assumed): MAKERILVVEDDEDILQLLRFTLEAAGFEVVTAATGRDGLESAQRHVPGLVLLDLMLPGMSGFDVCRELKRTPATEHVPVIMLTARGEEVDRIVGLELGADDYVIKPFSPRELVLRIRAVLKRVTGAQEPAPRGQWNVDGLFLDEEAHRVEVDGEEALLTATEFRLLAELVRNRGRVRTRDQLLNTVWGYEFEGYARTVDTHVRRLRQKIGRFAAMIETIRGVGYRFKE

“CAGACAGCCACCCGGTAGGCCGTTTACCCGCACAATCATGGCATCATCGCCATCTTCGGCGCATTGTCAGTAGGGTAACGCCACACGAAGTCCGCTTTTCAAGACACGCTACCACGCAACCCCATCCACGAGAAACGACAGCCGGAGGAAAAACCAAGGTTACAGCATAGTTACAGATAACACACCATTGGCACATTTCTTGTTAAACTTGCGGAGTTCGCGCTCTCCGCGCAACGGTCTCGGGCTCGCCCGCAAGCACCGTGAACTCCAGCCTCCGGCCCCCGGCGGCATGCCATTTTCACCACGCGCCCACCACAGGGCAGAAAAAGGAGATCGTAAATGGCCAAG (double strand) [por promoter substrate II (348 bp)]”: binds [1]; binds [2].

“CACTCTGAACCGTGGTCGCACACACCCCATCCGCTTTTTCAGACACGACCCGACACCGCGCCCCTACGTCCACTTTTTCAGACAGCCACCCGGTAGGCCGTTTACCCGCACAATCATGGCATCATCGCCATCTTCGGCGCATTGTCAGTAGGGTAACGCCACACGAAGTCCGCTTTTCAAGACACGCTACCACGCAACCCCATCCACGAGAAACGACAGCCGGAGGAAAAACCAAGGTTACAGCATAGTTACAGATAACACACCATTGGCACATTTCTTGTTAAACTTGCGGAGTTCGCGCTCTCCGCGCAACGGTCTCGGGCTCGCCCGCAAGCACCGTGAACTCCAGCCTCCGGCCCCCGGCGGCATGCCATTTTCACCACGCGCCCACCACAGGGCAGAAAAAGGAGATCGTAAATGGCCAAG (double strand) [por promoter substrate I (426 bp)]”: binds [1]; binds [2].
